Laboratory results published in patent US20060069024A1 (PURDUE RESEARCH FOUNDATION, published 2006).
Results are given in words; binding and its absence hold for the method and conditions named. Some binding calls cover weakened binding; strength is not graded here. Tags and fused reporters may be left off the sequences shown.

How the values were obtained:
[1] = molecular target: T1, PHO36MH (PHO36 with c-myc epitope and hexa-His tag fused in-frame at the C-terminus) (Saccharomyces cerevisiae) (UniProt Q12442); test: osmotin-Sepharose 4B pull-down (summary of the result)
T1 sequence (looked up): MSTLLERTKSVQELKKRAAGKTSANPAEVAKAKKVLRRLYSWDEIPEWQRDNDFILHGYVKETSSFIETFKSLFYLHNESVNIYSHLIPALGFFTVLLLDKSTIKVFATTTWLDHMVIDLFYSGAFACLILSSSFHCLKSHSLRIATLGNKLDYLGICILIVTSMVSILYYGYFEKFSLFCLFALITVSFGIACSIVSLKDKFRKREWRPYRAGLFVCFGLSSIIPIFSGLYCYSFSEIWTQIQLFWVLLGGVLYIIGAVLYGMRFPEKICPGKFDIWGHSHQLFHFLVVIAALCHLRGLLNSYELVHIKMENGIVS

[2] = molecular target: T1, PHO36MH (PHO36 with c-myc epitope and hexa-His tag fused in-frame at the C-terminus) (Saccharomyces cerevisiae); test: pull-down of the PHO36MH membrane fraction with osmotin-Sepharose 4B, anti-myc immunoblot
[3] = molecular target: T1, PHO36MH (PHO36 with c-myc epitope and hexa-His tag fused in-frame at the C-terminus) (Saccharomyces cerevisiae); test: 35S-osmotin binding to yeast spheroplasts, scintillation counting
[4] = molecular target: T1, PHO36MH (PHO36 with c-myc epitope and hexa-His tag fused in-frame at the C-terminus) (Saccharomyces cerevisiae); test: osmotin-Sepharose 4B pull-down and 35S-osmotin binding to spheroplasts

Measured: binding

B1: osmotin (ligand)
chain: ATIEVRNNCPYTVWAASTPIGGGRRLDRGQTWVINAPRGTKMARVWGRTNCNFNAAGRGTCQTGDCGGVLQCTGWGKPPNTLAEYALDQFSGLDFWDISLVDGFNIPMTFAPTNPSGGKCHAIHCTANINGECPRELRVPGGCNNPCTTFGGQQYCCTQGPCGPTFFSKFFKQRCPDAYSYPQDDPTSTFTCPGGSTNYRVIFCPNGQAHPNFPLEMPGSDEVAK
notes: Purified osmotin (26 kDa globular protein, mostly a monomer in solution); also called tobacco PR-5 protein; 35S-osmotin
binds: [1] | [2] | [3] | [4]
